PubChem BioAssay AID1259277 | Sanger Institute, 2017
In all, the deposit lists 160 reagents; shown is a part drawn at random. 48 of all reagents (30%) count as active. 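Calls refer to individual siRNAs; confirming a gene required at least two siRNAs in multiple cell lines.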 A number with no mark means an inactive call. The numbers tell different reagents against one gene apart. Not all columns of the deposit are shown. Reagent sequences are not shown. Not given: the amount of reagent, the time to read-out.

- Test: 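Follow-up of kinome hits for drug and siRNA synthetic lethality in colorectal cancer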 (follow-up of hits)
- Cells: LS123 human colorectal cancer cells
- Reagents: single siRNA against human genes
- Challenge: anchor drug BYL719 at 1 µM, cetuximab at 5 µg/ml or trametinib at 10 nM, or DMSO vehicle only, given one day after siRNA delivery
- Detection: 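Replicate mean of viability versus control pool 2 (non-targeting), and a synergy score comparing joint viability with separate effects of anchor drug and siRNA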
- Direction: synergy score with trametinib: higher = stronger synergistic killing with trametinib; synergy score with BYL719: higher = stronger synergistic killing with BYL719; synergy score with cetuximab: higher = stronger synergistic killing with cetuximab
- Rule for the call: 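Active if synergy exceeds 0.10 for any of the three drug combinations, otherwise inactive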
- Meaning of the calls: active = synergy with at least one anchor drug; inactive = no synergy with any anchor drug

| target gene | reagent | synergy score with trametinib | synergy score with BYL719 | synergy score with cetuximab |
| --- | --- | --- | --- | --- |
| IRAK1 (GeneID 3654) | 1 | -0.025 | -0.084 | -0.0587 |
| IRAK1 (GeneID 3654) | 2 | 0.115 (active) | 0.0115 | -0.131 |
| IRAK1 (GeneID 3654) | 3 | -0.128 | -0.13 | -0.158 |
| IRAK1 (GeneID 3654) | 4 | -0.0967 | 0.00934 | -0.141 |
| NLK (GeneID 51701) | 1 | -0.152 | -0.138 | -0.0399 |
| NLK (GeneID 51701) | 2 | -0.0176 (active) | 0.0951 | 0.123 |
| NLK (GeneID 51701) | 3 | -0.115 | -0.212 | -0.126 |
| NLK (GeneID 51701) | 4 | 0.0495 | -0.0897 | -0.118 |
| HUNK (GeneID 30811) | 1 | 0.0803 | 0.00469 | -0.0851 |
| HUNK (GeneID 30811) | 2 | -0.0142 | -0.0256 | -0.101 |
| HUNK (GeneID 30811) | 3 | 0.00824 | -0.13 | -0.236 |
| HUNK (GeneID 30811) | 4 | 0.309 (active) | 0.0318 | -0.04 |
| NR2F2 (GeneID 7026) | 1 | 0.0749 | -0.175 | 0.0409 |
| NR2F2 (GeneID 7026) | 2 | 0.0443 | -0.165 | -0.216 |
| NR2F2 (GeneID 7026) | 3 | 0.158 (active) | -0.105 | -0.0462 |
| NR2F2 (GeneID 7026) | 4 | 0.212 (active) | -0.112 | -0.118 |
| SF3B1 (GeneID 23451) | 1 | -0.125 | -0.0908 | -0.117 |
| SF3B1 (GeneID 23451) | 2 | -0.106 | -0.225 | -0.0962 |
| SF3B1 (GeneID 23451) | 3 | -0.0666 | -0.146 | 0.00436 |
| SF3B1 (GeneID 23451) | 4 | -0.00311 | -0.0678 | -0.0188 |
| PRAG1 (GeneID 157285) | 1 | 0.163 (active) | -0.0493 | 0.0212 |
| PRAG1 (GeneID 157285) | 2 | 0.242 (active) | 0.161 | -0.0883 |
| PRAG1 (GeneID 157285) | 3 | -0.227 | -0.0473 | -0.111 |
| PRAG1 (GeneID 157285) | 4 | -0.00096 | -0.06 | -0.0559 |

Already shown: entries from further up.
| target gene | reagent | synergy score with trametinib | synergy score with BYL719 | synergy score with cetuximab |
| --- | --- | --- | --- | --- |
| NR2F2 (GeneID 7026) | 1 | 0.0749 | -0.175 | 0.0409 |
| NR2F2 (GeneID 7026) | 2 | 0.0443 | -0.165 | -0.216 |
| NR2F2 (GeneID 7026) | 3 | 0.158 (active) | -0.105 | -0.0462 |

The listing continues.
| target gene | reagent | synergy score with trametinib | synergy score with BYL719 | synergy score with cetuximab |
| --- | --- | --- | --- | --- |
| MARK3 (GeneID 4140) | 1 | 0.0938 | -0.0892 | -0.00493 |
| MARK3 (GeneID 4140) | 2 | 0.234 (active) | -0.0049 | -0.114 |
| MARK3 (GeneID 4140) | 3 | 0.13 (active) | -0.0321 | -0.0119 |
| MARK3 (GeneID 4140) | 4 | 0.181 (active) | -0.0863 | -0.0563 |
| HSPB8 (GeneID 26353) | 1 | 0.21 (active) | -0.0786 | -0.125 |
| HSPB8 (GeneID 26353) | 2 | 0.106 (active) | -0.166 | -0.12 |
| HSPB8 (GeneID 26353) | 3 | -0.0385 | 0.00396 | 0.0189 |
| HSPB8 (GeneID 26353) | 4 | 0.153 (active) | -0.0914 | -0.109 |
| CDKN2D (GeneID 1032) | 1 | 0.0305 | -0.166 | -0.283 |
| CDKN2D (GeneID 1032) | 2 | -0.056 | -0.102 | -0.124 |
| CDKN2D (GeneID 1032) | 3 | 0.0255 | -0.177 | -0.0205 |
| CDKN2D (GeneID 1032) | 4 | -0.0525 | -0.0732 | -0.127 |
